Test results: patent publication US7846944B2, “Pyrazolo-pyridinone compounds and methods of use thereof” (Amgen Inc., priority 2007, dated 2010)
Some results were stated once for a whole list of compounds, not compound by compound.

The chains behind the UniProt entries cited, without tags or fusion partners.
UniProt Q16539, whole entry: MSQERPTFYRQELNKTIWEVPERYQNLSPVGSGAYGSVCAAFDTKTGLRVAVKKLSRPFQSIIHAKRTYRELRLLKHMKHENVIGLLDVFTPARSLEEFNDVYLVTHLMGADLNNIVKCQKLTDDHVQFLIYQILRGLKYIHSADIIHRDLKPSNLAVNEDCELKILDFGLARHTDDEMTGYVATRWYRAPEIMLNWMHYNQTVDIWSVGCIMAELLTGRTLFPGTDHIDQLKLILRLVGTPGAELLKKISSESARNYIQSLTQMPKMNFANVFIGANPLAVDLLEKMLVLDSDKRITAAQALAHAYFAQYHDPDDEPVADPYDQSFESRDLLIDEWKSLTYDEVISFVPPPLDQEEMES

Experiments:
recombinant human p38α = recombinant human p38α (Homo sapiens, UniProt Q16539); assay: Purified and activated recombinant human p38α HTRF kinase assay; format: biochemical; details: read-out: p38a IC50
Protocol: Purified and Activated Recombinant Human p38α Assay
• Kinase Reaction Buffer: Kinase reaction buffer for p38α HTRF assays consists of 50 mM Tris-pH 7.5, 5 mM MgCl2, 0.1 mg/mL BSA, 100 μM Na3VO4 and 0.5 mM DTT. • HTRF Detection Buffer: HTRF detection buffer contains 100 mM HEPES-pH 7.5, 100 mM NaCl, 0.1% BSA, 0.05% Tween-20, and 10 mM EDTA. • Serial Dilution of Compounds: Compounds were dissolved in 100% DMSO and serially diluted (3 fold, 10 point) in a polypropylene 96-well microtiter plate (drug plate). The final starting concentration of compounds in the p38α enzymatic assays was 1 μM. […] In the absence of substrate, the background was measured as LO control. […] After 60 minutes incubation at room temperature, the assay plate was read in a Discovery Plate Reader. The wells were excited with coherent 320 nm light and the ratio of delayed ([…] post excitation) emissions at […] (native europium fluorescence) and 665 nm (europium fluorescence transferred to allophycocyanin—an index of substrate phosphorylation) was determined (Park et al, 1999). • Data Analysis: The proportion of substrate phosphorylated in the kinase reaction in the presence of compound compared with that phosphorylated in the presence of DMSO vehicle alone (HI control) was calculated using the formula: % control (POC)=(compound−average LO)/(average HI−average LO)*100. […]

[1] = system: TNF-α secretion by LPS-treated THP1 cells; assay: Lipopolysaccharide-activated THP1 cell TNF production assay; format: cell-based, human; details: read-out: IC50 in the THP-1 cellular TNF production assay
Protocol: Lipopolysaccharide-Activated THP1 Cell TNF Production Assay
THP1 cells were resuspended in fresh THP1 media (RPMI 1640, 10% heat-inactivated FBS, 1×PGS, 1×NEAA, plus 30 μM βME) at a concentration of 1.5×10^6 cells per mL. One hundred microliters of cells per well were plated in a polystyrene 96-well tissue culture plate. 1.5 micrograms per mL of bacterial LPS was prepared in THP1 media and transferred to the first 11 columns of a 96-well polypropylene plate. Column 12 contained only THP1 media for the LO control. Compounds were dissolved in 100% DMSO and serially diluted 3 fold in a polypropylene 96-well microtiter plate (drug plate). Columns 6 and 12 were reserved as controls (HI controls and LO controls respectively) and contained only DMSO. […] Fifty microliters of conditioned media was transferred to a 96-well MULTI-ARRAY™ 96-well small spot plate—custom coated with MAB610 containing 100 μL of 2× Read Buffer P supplemented with 0.34 nM AF210NA polyclonal Ab labeled with ruthenium (MSD-Sulfo-TAG™-NHS ester). After an overnight incubation at room temperature with shaking, the reaction was read on the Sector Imager™ 6000. […] The amount of secreted TNF-α in the presence of AMG compounds compared with that in the presence of DMSO vehicle alone (HI control) was calculated using the formula: % control (POC)=(cpd−average LO)/(average HI−averageLO)*100. […]

N-cyclopropyl-3-(1-(2,4-difluorophenyl)-7-methyl-6-thioxo-6,7-dihydro-1H-pyrazolo[3,4-b]pyridin-5-yl)-4-methylbenzenecarbothioamide [Example 51]
IC50 (recombinant human p38α): ≤ 100 nM
IC50 [1]: ≤ 175 nM
